Experimental data reported in PMC9811443.
These are yes or no findings as the source states them, for the method shown. Binding seen in cells or lysates may run through a third protein. Some binding calls cover weakened binding; strength is not graded here.

By UniProt entry, the sequences of proteins in these tests, tags left out.
UniProt P60953: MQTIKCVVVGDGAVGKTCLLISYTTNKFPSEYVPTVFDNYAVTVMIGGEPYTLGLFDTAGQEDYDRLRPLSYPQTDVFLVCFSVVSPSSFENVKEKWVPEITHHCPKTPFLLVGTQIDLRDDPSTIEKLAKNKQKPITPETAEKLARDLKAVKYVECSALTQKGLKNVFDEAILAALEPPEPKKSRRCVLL

Biological target: T1, podocalyxin‐like protein 1 (PODXL) (human (endogenous in hiPSCs)) (UniProt O00592)
T1 sequence: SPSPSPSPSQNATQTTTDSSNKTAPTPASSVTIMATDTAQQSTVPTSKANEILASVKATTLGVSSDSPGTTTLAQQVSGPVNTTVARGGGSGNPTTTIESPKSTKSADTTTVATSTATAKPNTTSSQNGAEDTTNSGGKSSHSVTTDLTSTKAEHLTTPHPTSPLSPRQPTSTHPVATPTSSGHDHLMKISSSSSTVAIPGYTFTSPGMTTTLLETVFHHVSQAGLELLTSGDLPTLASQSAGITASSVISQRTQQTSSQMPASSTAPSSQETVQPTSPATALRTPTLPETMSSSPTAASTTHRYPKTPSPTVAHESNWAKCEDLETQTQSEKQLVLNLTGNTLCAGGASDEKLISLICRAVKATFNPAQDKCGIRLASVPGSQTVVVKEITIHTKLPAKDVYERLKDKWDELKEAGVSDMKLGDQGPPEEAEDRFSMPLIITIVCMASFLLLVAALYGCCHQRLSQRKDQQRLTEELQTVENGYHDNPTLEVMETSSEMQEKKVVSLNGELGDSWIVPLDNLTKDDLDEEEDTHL
Test: co-IP; anti-PODXL antibody on Dynabeads Protein G, hiPSC lysate (TNI lysis buffer: 0.5% Igepal CA-630, 50 mM Tris pH 7.5, 250 mM NaCl, 1 mM EDTA), overnight at 4 °C; blots for endogenous RAC1 and CDC42; with or without doxycycline (2 x 10^-6 M) to induce PODXL knockout; IgG control antibody

For CDC42 (from UniProt P60953 1-191), the binding was “binds”.
